Data from the supplement of paper PMC10849652.
Some of the results follow.

By UniProt entry, the sequences of proteins in these tests, tags left out. Where a name states a change or a piece, a line headed by the entry shows the natural chain unless it says otherwise.
UniProt Q6PII5: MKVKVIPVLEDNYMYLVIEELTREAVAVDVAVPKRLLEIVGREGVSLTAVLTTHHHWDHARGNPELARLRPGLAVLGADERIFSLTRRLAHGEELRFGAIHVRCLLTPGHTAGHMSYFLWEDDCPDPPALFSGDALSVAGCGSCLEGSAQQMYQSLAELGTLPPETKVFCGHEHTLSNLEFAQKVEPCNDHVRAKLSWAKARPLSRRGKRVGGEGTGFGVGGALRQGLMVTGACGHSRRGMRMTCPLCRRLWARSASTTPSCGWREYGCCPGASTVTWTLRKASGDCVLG
UniProt Q9BQ67, whole entry, looked up: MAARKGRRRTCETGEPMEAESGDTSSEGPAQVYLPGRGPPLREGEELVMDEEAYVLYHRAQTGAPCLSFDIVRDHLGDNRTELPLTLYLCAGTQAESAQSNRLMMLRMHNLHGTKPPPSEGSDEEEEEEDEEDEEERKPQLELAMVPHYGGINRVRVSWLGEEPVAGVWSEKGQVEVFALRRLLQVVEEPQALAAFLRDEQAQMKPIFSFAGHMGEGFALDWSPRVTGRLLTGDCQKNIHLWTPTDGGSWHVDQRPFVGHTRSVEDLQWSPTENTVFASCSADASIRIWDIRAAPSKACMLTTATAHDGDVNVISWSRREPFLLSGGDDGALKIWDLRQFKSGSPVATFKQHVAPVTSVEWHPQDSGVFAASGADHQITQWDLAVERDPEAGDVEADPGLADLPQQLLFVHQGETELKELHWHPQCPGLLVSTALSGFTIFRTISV
UniProt P69891: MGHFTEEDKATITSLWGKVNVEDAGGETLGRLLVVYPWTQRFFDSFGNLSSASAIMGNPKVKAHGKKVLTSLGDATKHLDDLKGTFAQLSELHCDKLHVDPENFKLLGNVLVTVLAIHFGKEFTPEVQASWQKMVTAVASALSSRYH
UniProt P53701: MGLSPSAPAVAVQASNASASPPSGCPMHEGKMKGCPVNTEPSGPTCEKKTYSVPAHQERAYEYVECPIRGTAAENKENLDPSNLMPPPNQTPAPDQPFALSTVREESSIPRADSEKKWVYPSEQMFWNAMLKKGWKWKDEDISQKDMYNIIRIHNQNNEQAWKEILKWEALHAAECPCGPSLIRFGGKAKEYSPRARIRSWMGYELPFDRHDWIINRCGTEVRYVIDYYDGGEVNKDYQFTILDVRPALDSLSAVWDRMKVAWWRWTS
UniProt P30711: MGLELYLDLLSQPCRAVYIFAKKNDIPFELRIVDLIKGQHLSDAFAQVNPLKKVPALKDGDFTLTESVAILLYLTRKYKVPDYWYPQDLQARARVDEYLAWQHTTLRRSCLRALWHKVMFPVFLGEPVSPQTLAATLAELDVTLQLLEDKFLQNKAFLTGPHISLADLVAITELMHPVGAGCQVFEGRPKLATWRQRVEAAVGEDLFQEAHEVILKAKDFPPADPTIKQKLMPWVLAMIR
UniProt Q8TAA5: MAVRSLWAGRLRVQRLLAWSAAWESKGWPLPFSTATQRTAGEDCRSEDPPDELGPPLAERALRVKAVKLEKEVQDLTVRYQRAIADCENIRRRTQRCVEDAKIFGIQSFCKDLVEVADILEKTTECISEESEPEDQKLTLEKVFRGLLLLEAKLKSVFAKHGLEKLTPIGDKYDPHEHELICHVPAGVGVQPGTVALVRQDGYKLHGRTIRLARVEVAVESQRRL
UniProt P29084: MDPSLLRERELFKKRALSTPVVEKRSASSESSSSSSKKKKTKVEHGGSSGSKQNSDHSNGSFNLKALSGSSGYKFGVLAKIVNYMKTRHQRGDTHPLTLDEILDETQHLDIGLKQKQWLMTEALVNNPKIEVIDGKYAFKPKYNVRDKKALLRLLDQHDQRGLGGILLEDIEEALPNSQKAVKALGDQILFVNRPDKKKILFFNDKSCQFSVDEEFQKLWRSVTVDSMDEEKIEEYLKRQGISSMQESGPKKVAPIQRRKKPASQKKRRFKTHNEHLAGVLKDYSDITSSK
UniProt P52657, whole entry, looked up: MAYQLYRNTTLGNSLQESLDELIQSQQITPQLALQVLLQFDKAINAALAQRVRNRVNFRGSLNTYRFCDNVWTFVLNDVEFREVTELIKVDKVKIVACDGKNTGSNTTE
UniProt P12081: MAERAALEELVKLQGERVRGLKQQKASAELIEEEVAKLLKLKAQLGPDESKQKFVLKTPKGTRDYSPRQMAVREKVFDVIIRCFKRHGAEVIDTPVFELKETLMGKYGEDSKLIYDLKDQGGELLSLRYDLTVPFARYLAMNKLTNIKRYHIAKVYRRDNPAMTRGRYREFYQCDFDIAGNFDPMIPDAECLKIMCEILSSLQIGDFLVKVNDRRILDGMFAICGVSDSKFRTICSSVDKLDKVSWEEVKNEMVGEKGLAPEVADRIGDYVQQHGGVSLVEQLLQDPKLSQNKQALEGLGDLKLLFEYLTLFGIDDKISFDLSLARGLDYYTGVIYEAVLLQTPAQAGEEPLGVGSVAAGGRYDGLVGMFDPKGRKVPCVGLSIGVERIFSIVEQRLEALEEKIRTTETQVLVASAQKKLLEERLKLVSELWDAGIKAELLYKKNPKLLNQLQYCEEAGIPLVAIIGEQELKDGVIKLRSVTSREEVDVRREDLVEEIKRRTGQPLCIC
UniProt P36969, whole entry, looked up: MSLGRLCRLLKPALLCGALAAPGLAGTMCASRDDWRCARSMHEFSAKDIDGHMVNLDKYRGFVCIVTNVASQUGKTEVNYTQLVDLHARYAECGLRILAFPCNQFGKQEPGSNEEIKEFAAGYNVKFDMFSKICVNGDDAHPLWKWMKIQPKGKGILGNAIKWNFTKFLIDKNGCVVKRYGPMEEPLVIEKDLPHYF
UniProt Q9UJ83: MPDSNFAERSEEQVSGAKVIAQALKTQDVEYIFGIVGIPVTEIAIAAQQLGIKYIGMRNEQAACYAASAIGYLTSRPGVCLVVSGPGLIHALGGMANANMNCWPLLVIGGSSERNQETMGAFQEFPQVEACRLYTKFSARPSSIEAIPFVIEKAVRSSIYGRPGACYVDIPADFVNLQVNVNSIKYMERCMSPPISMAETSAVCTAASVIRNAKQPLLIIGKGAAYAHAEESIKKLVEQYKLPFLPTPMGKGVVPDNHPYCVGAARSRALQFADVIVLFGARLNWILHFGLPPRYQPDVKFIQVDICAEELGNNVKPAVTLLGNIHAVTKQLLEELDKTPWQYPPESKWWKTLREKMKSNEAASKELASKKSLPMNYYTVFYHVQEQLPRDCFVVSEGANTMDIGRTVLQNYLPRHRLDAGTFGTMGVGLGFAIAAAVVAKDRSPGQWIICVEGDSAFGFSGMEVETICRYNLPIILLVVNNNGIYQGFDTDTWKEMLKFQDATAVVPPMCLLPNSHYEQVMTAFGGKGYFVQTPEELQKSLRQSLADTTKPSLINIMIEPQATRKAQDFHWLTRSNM
UniProt P62993, whole entry, looked up: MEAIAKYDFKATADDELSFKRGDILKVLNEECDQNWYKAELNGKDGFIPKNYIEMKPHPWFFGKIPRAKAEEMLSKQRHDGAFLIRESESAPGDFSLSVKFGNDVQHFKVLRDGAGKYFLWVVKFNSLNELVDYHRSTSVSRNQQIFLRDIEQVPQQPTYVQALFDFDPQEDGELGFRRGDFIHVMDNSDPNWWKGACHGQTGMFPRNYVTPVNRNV
UniProt Q14687: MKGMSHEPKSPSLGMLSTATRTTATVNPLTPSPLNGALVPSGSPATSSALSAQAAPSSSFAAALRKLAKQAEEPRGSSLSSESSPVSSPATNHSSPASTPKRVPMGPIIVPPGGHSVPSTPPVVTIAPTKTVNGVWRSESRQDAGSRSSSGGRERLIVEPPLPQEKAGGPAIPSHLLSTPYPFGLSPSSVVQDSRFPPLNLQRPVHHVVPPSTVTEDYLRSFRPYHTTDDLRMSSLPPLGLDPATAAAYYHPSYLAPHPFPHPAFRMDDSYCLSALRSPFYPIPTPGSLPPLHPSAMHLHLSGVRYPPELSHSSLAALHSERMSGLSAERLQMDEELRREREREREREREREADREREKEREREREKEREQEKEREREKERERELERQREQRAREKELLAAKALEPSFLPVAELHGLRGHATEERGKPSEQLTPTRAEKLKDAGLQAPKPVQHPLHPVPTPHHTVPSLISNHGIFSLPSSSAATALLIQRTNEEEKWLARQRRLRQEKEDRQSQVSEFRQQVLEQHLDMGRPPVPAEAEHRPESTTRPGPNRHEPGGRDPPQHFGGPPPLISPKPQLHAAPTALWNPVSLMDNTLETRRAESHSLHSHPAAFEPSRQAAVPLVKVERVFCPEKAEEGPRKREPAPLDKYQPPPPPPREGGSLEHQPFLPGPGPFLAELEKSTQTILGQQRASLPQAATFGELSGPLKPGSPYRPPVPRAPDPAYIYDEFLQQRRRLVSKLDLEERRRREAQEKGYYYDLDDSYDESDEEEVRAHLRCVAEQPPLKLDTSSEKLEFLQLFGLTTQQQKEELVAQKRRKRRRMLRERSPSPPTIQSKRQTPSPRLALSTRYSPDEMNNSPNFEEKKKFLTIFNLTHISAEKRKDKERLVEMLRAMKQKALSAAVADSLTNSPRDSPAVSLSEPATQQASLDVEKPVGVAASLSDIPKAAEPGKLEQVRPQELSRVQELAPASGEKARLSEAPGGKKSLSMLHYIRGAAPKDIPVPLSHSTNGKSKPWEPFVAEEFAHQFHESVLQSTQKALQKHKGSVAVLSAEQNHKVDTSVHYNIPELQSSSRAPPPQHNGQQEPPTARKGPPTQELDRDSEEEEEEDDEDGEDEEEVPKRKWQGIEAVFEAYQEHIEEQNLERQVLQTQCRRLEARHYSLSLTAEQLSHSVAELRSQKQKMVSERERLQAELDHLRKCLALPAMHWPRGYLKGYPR
UniProt Q9BT25: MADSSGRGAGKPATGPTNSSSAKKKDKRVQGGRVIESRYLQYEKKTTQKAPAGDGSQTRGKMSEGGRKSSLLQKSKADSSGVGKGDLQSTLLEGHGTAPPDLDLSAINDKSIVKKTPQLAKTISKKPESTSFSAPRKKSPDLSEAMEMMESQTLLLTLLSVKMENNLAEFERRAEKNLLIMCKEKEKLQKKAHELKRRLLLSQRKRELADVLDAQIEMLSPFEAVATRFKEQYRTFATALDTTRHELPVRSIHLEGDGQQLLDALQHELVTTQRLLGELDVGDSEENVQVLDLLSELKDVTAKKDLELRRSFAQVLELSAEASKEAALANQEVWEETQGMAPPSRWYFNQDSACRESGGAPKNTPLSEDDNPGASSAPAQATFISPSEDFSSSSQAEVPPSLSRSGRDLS
UniProt P49841: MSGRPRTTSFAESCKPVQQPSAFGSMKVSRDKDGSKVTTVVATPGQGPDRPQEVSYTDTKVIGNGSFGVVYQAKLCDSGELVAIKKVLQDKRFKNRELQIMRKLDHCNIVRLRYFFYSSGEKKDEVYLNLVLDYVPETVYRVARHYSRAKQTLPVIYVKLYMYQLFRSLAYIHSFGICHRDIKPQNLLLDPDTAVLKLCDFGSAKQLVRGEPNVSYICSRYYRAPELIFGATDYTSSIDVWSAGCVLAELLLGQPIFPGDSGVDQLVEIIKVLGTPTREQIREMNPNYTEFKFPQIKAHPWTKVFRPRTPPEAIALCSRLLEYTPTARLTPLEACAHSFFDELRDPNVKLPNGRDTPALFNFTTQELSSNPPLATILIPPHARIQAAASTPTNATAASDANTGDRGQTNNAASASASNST

Tests used:
Assay in all cases: log2 fold change, soluble protein after heating vs DMSO (PISA); higher = thermal stabilisation; K562 lysate, 10 uM; active = over 0.2 and 3.5 SD of the protein, either way, in both replicates (recomputed)
erlotinib = compound: C#Cc1cccc(Nc2ncnc3cc(OCCOC)c(OCCOC)cc23)c1 [erlotinib]
Method in brief: (§1)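 The values are log-two fold changes in thermal stability compared with solvent controls and come from duplicates. They were obtained by TMTpro 16plex LC-MS/MS, with channel sums equalised, on the supernatant after 21,000xg for 90 min. That supernatant came from crude K562 extract at 1 mg/mL protein treated with 10 μM compound for 30 min, heated for 3 min across 48°C-58°C, pooled and brought to 0.5% NP-40 at 4°C.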

[1] = compound: C/C(=N\NC(=O)C1=CC(=CC=C1)S(=O)(=O)N2CCOCC2)/C3=C(C=CC(=C3)Cl)O
Method in brief: as §1

[2] = compound: C1=CC(=CC=C1C2=NC3=C(N2)C=C(C=C3)C(=O)N)OC4=CC=C(C=C4)Cl
Method in brief: as §1

[3] = compound: C1=CC2=C(C=CC(=C2)/C=C\3/C(=O)NC(=NCC4=CC=CS4)S3)N=C1
Method in brief: as §1

[4] = compound: C1=CC2=NC=CN=C2C=C1/C=C/3\C(=O)NC(=O)S3
Method in brief: as §1

[5] = compound: C1=CC=C(C=C1)C2=NC(=C(N2)C3=CC=NC=C3)C4=CC(=C(C=C4)Cl)O
Method in brief: as §1

[6] = compound: C1=CC=C2C(=C1)C3=NNC4=CC=CC(=C43)C2=O
Method in brief: as §1

[7] = compound: C1CCN(C1)C(=O)NC2=CC=CC(=C2)NC3=NC=C(C(=N3)NCCC4=CN=CN4)Br
Method in brief: as §1

[8] = compound: C1CN(CCC1(CC2=CC=C(C=C2)Cl)N)C3=NC=NC4=C3C=CN4
Method in brief: as §1

IRAK-1-4 Inhibitor I = compound: C1COCCN1CCN2C3=CC=CC=C3N=C2NC(=O)C4=CC(=CC=C4)[N+](=O)[O-] [IRAK-1-4 Inhibitor I]
Method in brief: as §1

ibrutinib = compound: C=CC(=O)N1CCC[C@@H](n2nc(-c3ccc(Oc4ccccc4)cc3)c3c(N)ncnc32)C1 [ibrutinib]
Method in brief: as §1

[9] = compound: CC(=O)c1cnc2ccc(-c3cc(Cl)c(O)c(Cl)c3)nc2c1N[C@H]1CC[C@H](CN(C)C)CC1
Method in brief: as §1

ralimetinib = compound: CC(C)(C)Cn1c(N)nc2ccc(-c3[nH]c(C(C)(C)C)nc3-c3ccc(F)cc3)nc21 [ralimetinib]
Method in brief: as §1

[10] = compound: CC(C)(O)CC(=O)NCCn1ccc2ncnc(Nc3ccc(Oc4cccc(C(F)(F)F)c4)c(Cl)c3)c21
Method in brief: as §1

[11] = compound: CC(C)C1=C2N=C(C=C(N2N=C1)NCC3=CC=CC=C3)NCCCCCCN
Method in brief: as §1

[12] = compound: CC1=C(C(CC(=O)N1)C2=CC=C(C=C2)C(F)(F)F)C(=O)NC3=C(C=C4C(=C3)C=NN4)F
Method in brief: as §1

[13] = compound: CC1=C(C2=C(C=C1)C(=O)C3=CC=CC=C3N2CCCN)C
Method in brief: as §1

[14] = compound: CC1=C(C=C(C=C1)NC(=O)C2=CC(=CC=C2)C(C)(C)C#N)NC3=CC4=C(C=C3)N=CN(C4=O)C
Method in brief: as §1

[15] = compound: CC1=C(C=C(C=C1)NC(=O)C2=CC(=CC=C2)N(C)C)NC(=O)C3=CC=C(C=C3)O
Method in brief: as §1

[16] = compound: CC1=CC=C(C=C1)SC2=C3C=C(SC3=CN=C2)C(=O)N
Method in brief: as §1

Measured: log2 fold change

HAGHL isoform 2 (UniProt Q6PII5)
inactive: erlotinib -0.006 | [1] -0.043 | [2] 0.026 | [3] 0.085 | [4] -0.097 | [5] 0.037 | [6] 0.034 | [7] -0.039 | [8] 0.05 | IRAK-1-4 Inhibitor I -0.055 | ibrutinib 0.118 | [9] 0.014 | ralimetinib 0.032 | [10] -0.059 | [11] -0.053 | [12] -0.081 | [13] -0.035 | [14] -0.069 | [15] 0.003 | [16] -0.013

GRWD1 (UniProt Q9BQ67)
inactive: erlotinib -0.027 | [1] -0.129 | [2] 0.053 | [3] -0.008 | [4] -0.002 | [5] -0.013 | [6] -0.013 | [7] 0.015 | [8] 0.036 | IRAK-1-4 Inhibitor I 0.008 | ibrutinib 0.03 | [9] -0.028 | ralimetinib 0.025 | [10] -0.009 | [11] 0.019 | [12] -0.011 | [13] -0.042 | [14] 0.011 | [15] 0.002 | [16] -0.009

HBG1 (UniProt P69891)
inactive: erlotinib 0 | [1] -0.008 | [2] -0.022 | [3] 0.054 | [4] 0.015 | [5] -0.014 | [6] 0.047 | [7] 0.018 | [8] 0.067 | IRAK-1-4 Inhibitor I -0.017 | ibrutinib 0.062 | [9] -0.007 | ralimetinib -0.003 | [10] -0.027 | [11] -0.014 | [12] -0.053 | [13] 0.006 | [14] 0.068 | [15] -0.013 | [16] 0.019

HCCS (UniProt P53701)
inactive: erlotinib -0.033 | [1] 0.062 | [2] -0.055 | [3] -0.006 | [4] -0.003 | [5] -0.023 | [6] -0.03 | [7] 0.024 | [8] 0.004 | IRAK-1-4 Inhibitor I 0.05 | ibrutinib 0.005 | [9] -0.021 | ralimetinib 0.024 | [10] -0.057 | [11] 0.001 | [12] 0.004 | [13] 0.004 | [14] -0.008 | [15] 0.041 | [16] 0.006

UniProt H0YHG0
inactive: erlotinib -0.003 | [1] -0.152 | [2] 0.015 | [3] -0.01 | [4] -0.019 | [5] 0.023 | [6] -0.017 | [7] 0.023 | [8] -0.008 | IRAK-1-4 Inhibitor I 0.011 | ibrutinib -0.01 | [9] -0.011 | ralimetinib 0.014 | [10] 0.001 | [11] -0.025 | [12] -0.007 | [13] 0.013 | [14] 0.046 | [15] -0.003 | [16] -0.015

GSTT1 (UniProt P30711)
inactive: erlotinib -0.01 | [1] -0.098 | [2] 0.09 | [3] 0.021 | [4] -0.038 | [5] -0.009 | [6] 0.018 | [7] 0.031 | [8] 0.037 | IRAK-1-4 Inhibitor I -0.014 | ibrutinib 0.077 | [9] -0.017 | ralimetinib -0.047 | [10] -0.036 | [11] -0.026 | [12] -0.007 | [13] 0.01 | [14] -0.014 | [15] 0.03 | [16] -0.01

GRPEL2 (UniProt Q8TAA5)
inactive: erlotinib 0.076 | [1] -0.112 | [2] 0.009 | [3] -0.02 | [4] 0.006 | [5] 0.012 | [6] -0.062 | [7] 0.025 | [8] -0.019 | IRAK-1-4 Inhibitor I 0.029 | ibrutinib 0.001 | [9] 0.039 | ralimetinib 0.033 | [10] -0.004 | [11] -0.055 | [12] 0.06 | [13] -0.007 | [14] -0.016 | [15] 0.023 | [16] 0.072

GTF2E2 (UniProt P29084)
inactive: erlotinib -0.081 | [1] -0.064 | [2] -0.058 | [3] -0.033 | [4] -0.041 | [5] -0.011 | [6] -0.017 | [7] 0 | [8] 0.017 | IRAK-1-4 Inhibitor I -0.023 | ibrutinib 0.017 | [9] 0.013 | ralimetinib 0.014 | [10] 0.104 | [11] -0.03 | [12] -0.006 | [13] -0.035 | [14] 0.079 | [15] -0.004 | [16] 0.019

GTF2A2 (UniProt P52657)
inactive: erlotinib 0.016 | [1] -0.025 | [2] 0.019 | [3] -0.006 | [4] 0.009 | [5] -0.017 | [6] 0.029 | [7] -0.006 | [8] -0.01 | IRAK-1-4 Inhibitor I 0.017 | ibrutinib 0.041 | [9] 0.043 | ralimetinib 0.026 | [10] -0.032 | [11] -0.021 | [12] 0.008 | [13] 0 | [14] -0.004 | [15] -0.021 | [16] 0.015

HARS (UniProt P12081)
inactive: erlotinib -0.034 | [1] 0.006 | [2] -0.002 | [3] 0.021 | [4] -0.036 | [5] -0.005 | [6] 0.019 | [7] -0.016 | [8] 0.001 | IRAK-1-4 Inhibitor I -0.002 | ibrutinib -0.049 | [9] 0.022 | ralimetinib -0.002 | [10] 0.015 | [11] -0.039 | [12] -0.015 | [13] 0.008 | [14] 0.005 | [15] 0.008 | [16] 0.005

GPX4 (UniProt P36969)
inactive: erlotinib 0.02 | [1] 0.051 | [2] -0.037 | [3] -0.016 | [4] 0.04 | [5] -0.029 | [6] -0.06 | [7] 0.024 | [8] 0.021 | IRAK-1-4 Inhibitor I 0.012 | ibrutinib -0.013 | [9] 0.01 | ralimetinib 0.011 | [10] 0.018 | [11] -0.004 | [12] 0.006 | [13] -0.002 | [14] 0.014 | [15] 0.003 | [16] 0.039

2 neighbouring records already listed, for reference:
HARS (UniProt P12081)
inactive: erlotinib -0.034 | [1] 0.006 | [2] -0.002 | [3] 0.021 | [4] -0.036 | [5] -0.005 | [6] 0.019 | [7] -0.016 | [8] 0.001 | IRAK-1-4 Inhibitor I -0.002 | ibrutinib -0.049 | [9] 0.022 | ralimetinib -0.002 | [10] 0.015 | [11] -0.039 | [12] -0.015 | [13] 0.008 | [14] 0.005 | [15] 0.008 | [16] 0.005

GPX4 (UniProt P36969)
inactive: erlotinib 0.02 | [1] 0.051 | [2] -0.037 | [3] -0.016 | [4] 0.04 | [5] -0.029 | [6] -0.06 | [7] 0.024 | [8] 0.021 | IRAK-1-4 Inhibitor I 0.012 | ibrutinib -0.013 | [9] 0.01 | ralimetinib 0.011 | [10] 0.018 | [11] -0.004 | [12] 0.006 | [13] -0.002 | [14] 0.014 | [15] 0.003 | [16] 0.039

More results

HACL1 (UniProt Q9UJ83)
inactive: erlotinib -0.006 | [1] -0.031 | [2] 0.001 | [3] 0.006 | [4] -0.016 | [5] 0.017 | [6] -0.033 | [7] -0.013 | [8] 0.01 | IRAK-1-4 Inhibitor I 0.024 | ibrutinib 0.013 | [9] 0.015 | ralimetinib -0.017 | [10] 0.002 | [11] -0.047 | [12] 0 | [13] -0.013 | [14] 0.002 | [15] -0.014 | [16] 0.021

GRB2 (UniProt P62993)
inactive: erlotinib -0.017 | [1] -0.06 | [2] 0.02 | [3] 0.022 | [4] -0.008 | [5] 0.006 | [6] -0.013 | [7] 0.018 | [8] 0.002 | IRAK-1-4 Inhibitor I -0.009 | ibrutinib -0.005 | [9] 0.004 | ralimetinib -0.032 | [10] -0.018 | [11] -0.015 | [12] -0.004 | [13] 0 | [14] -0.003 | [15] -0.003 | [16] -0.021

GSE1 (UniProt Q14687)
inactive: erlotinib 0.012 | [1] -0.022 | [2] 0.025 | [3] 0.003 | [4] -0.001 | [5] -0.013 | [6] -0.048 | [7] -0.032 | [8] -0.018 | IRAK-1-4 Inhibitor I -0.011 | ibrutinib 0.006 | [9] -0.021 | ralimetinib 0.015 | [10] -0.026 | [11] -0.004 | [12] -0.009 | [13] 0.008 | [14] -0.055 | [15] 0.035 | [16] -0.016

HAUS8 (UniProt Q9BT25)
inactive: erlotinib 0.007 | [1] -0.007 | [2] 0.007 | [3] 0.016 | [4] -0.06 | [5] -0.029 | [6] 0.142 | [7] 0.001 | [8] 0.062 | IRAK-1-4 Inhibitor I 0.015 | ibrutinib 0.049 | [9] -0.01 | ralimetinib 0.054 | [10] 0.011 | [11] -0.012 | [12] -0.044 | [13] -0.062 | [14] 0.003 | [15] 0.033 | [16] 0.036

GSK3B isoform 2 (UniProt P49841)
inactive: erlotinib 0.043 | [1] -0.323 | [2] 0.036 | [3] 0.145 | [4] 0.085 | [5] 0.459 | [6] 0.132 | [7] 0.202 | [8] -0.011 | IRAK-1-4 Inhibitor I -0.002 | ibrutinib -0.064 | [9] 0.344 | ralimetinib -0.012 | [10] -0.008 | [11] -0.016 | [12] -0.04 | [13] -0.006 | [14] -0.018 | [15] -0.029 | [16] 0.189
